# Laboratory results: article PMC7819943, “Rice protein-binding microarrays: a tool to detect cis-acting elements near promoter regions in rice”
# Sequences of proteins named here, by UniProt entry; tags and fusion partners are left off.
# UniProt Q0JBA9, entry or part of it: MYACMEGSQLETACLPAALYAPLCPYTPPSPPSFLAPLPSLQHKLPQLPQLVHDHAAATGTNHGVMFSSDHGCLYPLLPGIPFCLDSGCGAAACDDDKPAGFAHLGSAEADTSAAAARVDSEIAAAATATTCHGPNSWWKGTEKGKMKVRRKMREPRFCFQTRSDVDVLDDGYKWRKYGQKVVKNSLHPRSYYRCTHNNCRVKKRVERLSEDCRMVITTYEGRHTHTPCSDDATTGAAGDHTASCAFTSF
# This is one part of the list.
# Target: OsWRKY34 (Oryza sativa, UniProt Q0JBA9 1-250)
# Test: protein-binding microarray (RPBM); PBS, 2% BSA, 51.3 ng/ul salmon testes DNA, 50 uM zinc acetate, 200 nM TF, 25 C, 1 h; high values mean tight binding
# Conditions: protein: recombinant; tags: N-terminal polyhistidine and DsRed monomer fusion (pET32a); label: CyDye5-dUTP incorporated in the synthesized complementary strand; 3' TTTTT single-stranded linker to array surface; dsDNA, one strand shown
# Outline: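 In PBS with 2% BSA, salmon testes DNA and 50 µM zinc acetate, 200 nM protein was incubated on a custom Agilent array at 25 °C for 1 h and then washed off. The array had been made double-stranded by primer extension with Cy5-dUTP and blocked with 2% BSA. The proteins were transcription factors fused N-terminally to polyhistidine and DsRed, expressed in E. coli BL21-CodonPlus and purified on Ni–NTA. The binding signal is per-feature fluorescence intensity (arbitrary units) from an Axon 4000B scanner.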
row,Sequence,binding signal
1,GGTATGTCCAGATTCACTCTAATGTGTTAGAATTACTCTTCGGAGTCACCTAGTGCAG,8040 fluorescence intensity (a.u.)
2,CTGTTCTTTTGTATGAATCCCTGAGAGTGGAATTTATAGTCGGAGTCACCTAGTGCAG,8070 fluorescence intensity (a.u.)
3,GCCATCCACCACCGCCCCTCCCTCTCGCCGCGCGCGCGCGCGGAGTCACCTAGTGCAG,10500 fluorescence intensity (a.u.)
4,GACCCCGACGATCATTTATCCTGGCTTCGCCCCTGCTAACCGGAGTCACCTAGTGCAG,11500 fluorescence intensity (a.u.)
5,AAGACATGTGAATTTTGGTGGGATGTGGATGGGGAATTGACGGAGTCACCTAGTGCAG,9840 fluorescence intensity (a.u.)
6,AGTGTCATTTGCCCGCCTCACCTGCACTCTCTCCATCTCTCGGAGTCACCTAGTGCAG,8760 fluorescence intensity (a.u.)
7,TTGGAAGCTTTTCTTGCCTGCTGCATTCTGAATATAGTGTCGGAGTCACCTAGTGCAG,8300 fluorescence intensity (a.u.)
8,ATCTCCTTAGAGTCTGCTCTTACTGATCGGTTCCGTCTCCCGGAGTCACCTAGTGCAG,8080 fluorescence intensity (a.u.)
9,TGCGTACGTTTTTTTTTCTTCTTTGGTTTTACCGCGCGCGCGGAGTCACCTAGTGCAG,11400 fluorescence intensity (a.u.)
10,GATCCACCGCCGCCGCCCGCTCGCCGGAGTCCCATCGCTGCGGAGTCACCTAGTGCAG,8600 fluorescence intensity (a.u.)
11,TGGATGCAAGCAGGATGGGTTAGTGGGATTTTTCTTCTTCCGGAGTCACCTAGTGCAG,15100 fluorescence intensity (a.u.)
12,AATGTATGACGCCGTTGACTTTTTGACCAACGTTTGACTACGGAGTCACCTAGTGCAG,36100 fluorescence intensity (a.u.)
13,GTGGTGGCAGGCTTGAGTGGTTAGGAGGTGGATATCGGTGCGGAGTCACCTAGTGCAG,8030 fluorescence intensity (a.u.)
14,CCTATAAATAACAACCAAACCTAGCACACAACTACATCTCCGGAGTCACCTAGTGCAG,8380 fluorescence intensity (a.u.)
15,AGGGCAGTGTTCTTGTTTATTTTACTTTATCCAGCGTCGCCGGAGTCACCTAGTGCAG,9570 fluorescence intensity (a.u.)
16,TCATGCACCGCCTCTTAATTTCTTCTTCTTTCTTGGGGCCCGGAGTCACCTAGTGCAG,8420 fluorescence intensity (a.u.)
17,GCTCACCCGTCCAGCGTTTCGCCCCTTCACCTCCCAACCACGGAGTCACCTAGTGCAG,9490 fluorescence intensity (a.u.)
18,ATGTGGGTGTGGCATTGTTGGTGTCGGCTGCGCCGCAGCCCGGAGTCACCTAGTGCAG,9630 fluorescence intensity (a.u.)
19,ACTCGCTATCTTGTCACGTCCATAAGTACATGCCATTGCCCGGAGTCACCTAGTGCAG,8330 fluorescence intensity (a.u.)
20,TTTCAGTTTAGTATATGCACTTCTTGTTCTTCACTGCTGCCGGAGTCACCTAGTGCAG,9480 fluorescence intensity (a.u.)
21,GGTCATAAGCCATGCCACGCTCTTTTTAATTATTTATCAGCGGAGTCACCTAGTGCAG,11200 fluorescence intensity (a.u.)
22,TGTTCTTTTTGGCTAAAACTTTCAGAGTAACATCGATTTTCGGAGTCACCTAGTGCAG,8240 fluorescence intensity (a.u.)
23,ATGTTTAAAAAAGTCAACGGCGTCGACGGAGTGTATATATCGGAGTCACCTAGTGCAG,14200 fluorescence intensity (a.u.)

# Some values from the results shown.
# binding signal, ACTCGCTATCTTGTCACGTCCATAAGTACATGCCATTGCCCGGAGTCACCTAGTGCAG is entered as 8330 fluorescence intensity (a.u.)
# binding signal, TGTTCTTTTTGGCTAAAACTTTCAGAGTAACATCGATTTTCGGAGTCACCTAGTGCAG is entered as 8240 fluorescence intensity (a.u.)
